# The list shows a part of the results. These are further read-outs of the screen, such as a control signal, another cell line or another target. No call is given for them. The list favours compounds with an active or inconclusive main result. Potencies come from curve fits of mixed quality, noted in brackets.
# Assay: qHTS Assay for Lipid Storage Modulators in Drosophila S3 Cells;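 for cell number change: cells counted by Cell Tracker Red CMTPX staining in the red channel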
# Settings: BODIPY lipid droplet fluorescence, 18-24 h; for cell number change: measured here: cell count max response, cells fed with added oleic acid
# Procedure, shortened: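 Drosophila S3 cells got compounds at several concentrations plus oleic acid (400 uM solution). Laser-scanning cytometry with 488 nm excitation read lipid droplets at 500-530 nm and cells at 575-640 nm. Percent activity was relative to 20 uM Triacsin C.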
# [1] = measured here: lipid fluorescence (Fed channel) AC50, cells fed with added oleic acid
# [2] = measured here: cell number channel AC50, cells fed with added oleic acid
SMILES,AC50 [1],cell number change,AC50 [2]
NS(=O)(=O)c1ccc(CCNC(=O)CCCC2=NS(=O)(=O)c3ccccc3N2)cc1,"0.00461 µM [rising, full curve, poor fit]",–,–
CCC(C)NC(=O)c1ccc(CSCc2cccc(F)c2)o1 (configuration not stated),"29.1 µM [rising, single point]",61.5%,"29.1 µM [rising, single point]"
Cc1cc(C(C)(C)C)cc(S(=O)(=O)NCCO)c1C,"3.26 µM [falling, partial curve]",-40.3%,–
CCOC(=O)c1ccccc1-n1nnnc1C,–,-34.7%,"0.116 µM [falling, full curve]"
CCCOc1cc(C)c(S(=O)(=O)N2CCN(C)CC2)cc1C,"1.84 µM [rising, partial curve]",–,–
Cc1nc2cc(NC(=O)NCc3ccccc3)ccc2o1,–,-21.5%,–
CCN(CC)CCNC(=O)Cc1c(C(=O)O)n(CC)c2ccccc12,"20.6 µM [falling, partial curve]",–,–
COc1ccc(N2C(=O)CC(Sc3nc4ccccc4s3)C2=O)cc1 (configuration not stated),–,13.1%,"0.164 µM [rising, full curve, poor fit]"
Cc1nc(-c2ccc(Cl)cc2)sc1C(=O)NNC(=O)C(C)C,"16.4 µM [rising, partial curve]",47.3%,"16.4 µM [rising, single point]"
Cc1cccc(NC(=S)NCc2ccc3c(c2)OCO3)c1,"16.4 µM [rising, partial curve]",16%,–
COc1ccccc1NC(=O)CCC(=O)Nc1cc(OC)c(NC(=O)c2cccs2)cc1OC,"0.82 µM [rising, single point]",0.417%,–
Fc1ccccc1/C=N/n1c(COc2ccccc2)n[nH]c1=S,"29.1 µM [falling, single point]",-33.9%,"29.1 µM [falling, single point]"
COc1ccccc1NC(=O)CN(C)S(=O)(=O)c1ccc2c(c1)CCC(=O)N2,"20.6 µM [rising, partial curve]",55.3%,"9.2 µM [rising, partial curve, poor fit]"
CCN1CCN(CCNC(=O)c2ccc3nc(-c4cccc(C)c4)c(-c4cccc(C)c4)nc3c2)CC1,"6.51 µM [rising, single point]",10.6%,–
COc1ccc2oc(=O)c(C(=O)Nc3ccccc3O)cc2c1,"0.731 µM [falling, single point]",3.26%,–
COc1ccc(C2C(C#N)=C(SC)NC3=C2C(=O)CC(C)(C)C3)cc1 (configuration not stated),–,-12.7%,–
Cc1nc2ccccc2c2c1C(=O)N(C1CCCCCCC1)C2=O,"1.84 µM [rising, full curve, poor fit]",-1.61%,–
O=C(COC(=O)/C=C/c1ccc(Cl)c(Cl)c1)NC1CCCC1,"13 µM [rising, partial curve, poor fit]",33.1%,"20.6 µM [rising, single point]"
COc1ccc(N2CCN(CCCNC(=O)c3ccc(CS(=O)(=O)c4ccc(OC)cc4)o3)CC2)cc1,"29.1 µM [rising, single point]",7.31%,–
Cc1ccc(-c2nn(-c3ccccc3)cc2/C=C2\SC(=S)N(CCCCCC(=O)O)C2=O)o1,"29.1 µM [falling, single point]",65.1%,"25.9 µM [rising, single point]"
Cc1ccc(S(=O)(=O)Nn2c(C)ccc2C)cc1,"0.184 µM [falling, full curve, poor fit]",13.5%,–
CCNC(=O)C(=O)NCC1OCCCN1S(=O)(=O)c1cccs1 (configuration not stated),"25.9 µM [falling, partial curve, poor fit]",-1.44%,"6.51 µM [rising, single point]"
O=C(C1CCN(S(=O)(=O)c2ccc(-n3cnnn3)cc2)CC1)N1CCCCC1,"6.51 µM [falling, single point]",-3.17%,–
Clc1cccc(/C=N\Nc2nccs2)c1,–,-27.6%,–
COc1cc2c(cc1OC)C(C)N(S(=O)(=O)c1cccs1)CC2 (configuration not stated),"29.1 µM [falling, single point]",-16.2%,–
CCOC(=O)C1=C(C)N=c2s/c(=C\c3ccncc3)c(=O)n2C1c1ccc2c(c1)OCO2 (configuration not stated),"0.291 µM [rising, partial curve]",-44.9%,"7.31 µM [falling, full curve, poor fit]"
O=[N+]([O-])c1cc(Cl)c2cccnc2c1O,–,-6.37%,"2.59 µM [rising, single point]"

# A second format for part of the listing above:
SMILES | AC50 [1] | cell number change | AC50 [2]
NS(=O)(=O)c1ccc(CCNC(=O)CCCC2=NS(=O)(=O)c3ccccc3N2)cc1 | 0.00461 µM [rising, full curve, poor fit] | – | –
CCC(C)NC(=O)c1ccc(CSCc2cccc(F)c2)o1 (configuration not stated) | 29.1 µM [rising, single point] | 61.5% | 29.1 µM [rising, single point]
Cc1cc(C(C)(C)C)cc(S(=O)(=O)NCCO)c1C | 3.26 µM [falling, partial curve] | -40.3% | –
CCCOc1cc(C)c(S(=O)(=O)N2CCN(C)CC2)cc1C | 1.84 µM [rising, partial curve] | – | –
Cc1nc2cc(NC(=O)NCc3ccccc3)ccc2o1 | – | -21.5% | –
COc1ccc(N2C(=O)CC(Sc3nc4ccccc4s3)C2=O)cc1 (configuration not stated) | – | 13.1% | 0.164 µM [rising, full curve, poor fit]
COc1ccccc1NC(=O)CCC(=O)Nc1cc(OC)c(NC(=O)c2cccs2)cc1OC | 0.82 µM [rising, single point] | 0.417% | –
COc1ccc2oc(=O)c(C(=O)Nc3ccccc3O)cc2c1 | 0.731 µM [falling, single point] | 3.26% | –
COc1ccc(C2C(C#N)=C(SC)NC3=C2C(=O)CC(C)(C)C3)cc1 (configuration not stated) | – | -12.7% | –
Cc1nc2ccccc2c2c1C(=O)N(C1CCCCCCC1)C2=O | 1.84 µM [rising, full curve, poor fit] | -1.61% | –
Cc1ccc(-c2nn(-c3ccccc3)cc2/C=C2\SC(=S)N(CCCCCC(=O)O)C2=O)o1 | 29.1 µM [falling, single point] | 65.1% | 25.9 µM [rising, single point]
Cc1ccc(S(=O)(=O)Nn2c(C)ccc2C)cc1 | 0.184 µM [falling, full curve, poor fit] | 13.5% | –
CCNC(=O)C(=O)NCC1OCCCN1S(=O)(=O)c1cccs1 (configuration not stated) | 25.9 µM [falling, partial curve, poor fit] | -1.44% | 6.51 µM [rising, single point]
Clc1cccc(/C=N\Nc2nccs2)c1 | – | -27.6% | –
COc1cc2c(cc1OC)C(C)N(S(=O)(=O)c1cccs1)CC2 (configuration not stated) | 29.1 µM [falling, single point] | -16.2% | –

# More structures.

SMILES,AC50 [1],cell number change,AC50 [2]
O=C(CS(=O)CC(=O)N(CC(=O)NC1CCCC1)C1CCCCC1)Nc1ccc(F)cc1 (configuration not stated),"0.206 µM [falling, full curve, poor fit]",0.612%,–
CN=C(Cc1ccccc1)C1=C(O)CC(C)(C)CC1=O,"6.51 µM [rising, single point]",17.2%,–
Cc1ccc(S(=O)(=O)NN2C(=O)c3ccccc3NC2c2ccccc2F)cc1 (configuration not stated),"0.13 µM [falling, full curve]",26.9%,–
CCOC(=O)C1CCCN(C(=O)c2cc3cc4ccc(OC)cc4nc3o2)C1 (configuration not stated),–,0.59%,"4.61 µM [rising, single point]"
Clc1ccccc1-c1nc(-c2cccnc2)no1,"0.146 µM [falling, full curve, poor fit]",-5.61%,–
NS(=O)(=O)c1ccc(-c2ccc(/C=N/NC(=O)c3ccc([N+](=O)[O-])cc3)o2)cc1,–,–,"0.092 µM [rising, full curve, poor fit]"
O=C(Nc1ccc(Br)cc1Br)c1cccc2c1C(=O)N(C1CCCCC1)C2,"25.9 µM [rising, partial curve]",63%,"16.4 µM [rising, partial curve]"
CCC(=O)N1CCN=C1SCc1cccc(F)c1,–,5.95%,"1.64 µM [rising, partial curve]"
CCn1nc(C)c(/C=N/NC(=O)CSc2ccccn2)c1C,"0.00461 µM [rising, full curve, poor fit]",–,"0.326 µM [rising, full curve, poor fit]"
CC(=O)OC(C(=O)NC1CCCCC1)c1cccc(F)c1 (configuration not stated),"0.103 µM [falling, full curve, poor fit]",13.7%,–
O=C(/C=C/c1cccc(F)c1)NCCCn1ccnc1,"0.517 µM [rising, partial curve]",0.567%,–
CC(=O)OCC1O[C@@H](O[C@@H]2C[C@H]3C(C)(C)[C@H](OC(C)=O)CC[C@]3(C)[C@H]3CC[C@]45C[C@]4(CC[C@H]5[C@@H](C)C[C@@H](O)[C@H](O)C(C)(C)O)[C@@]32C)[C@H](O)[C@@H](O)[C@@H]1O (some centres not stated),"6.51 µM [falling, partial curve]",-88.8%,"10.3 µM [falling, partial curve]"
CCCNC(=O)C(Cc1ccccc1)NC(=O)c1ccc(C(F)(F)F)cc1 (configuration not stated),"1.64 µM [rising, partial curve]",-13.4%,–
COc1ccccc1N1CCN(CC(O)COc2ccc(C)cc2C)CC1 (configuration not stated),–,30.6%,"5.17 µM [rising, partial curve]"
O=[N+]([O-])c1ccc(N2CCOCC2)cc1NC(c1ccccc1)c1ccccc1,"0.731 µM [falling, full curve, poor fit]",-16.7%,"0.651 µM [falling, single point]"
O=C(Nc1ccc(S(=O)(=O)Nc2ccc(F)cc2)cc1)c1ccc(CN2CCOCC2)cc1,"6.51 µM [falling, single point]",-13.1%,–
CN(C(=O)Cn1c(=O)oc2cc(S(=O)(=O)N3CCCC3)ccc21)C1CCCCC1,"4.11 µM [rising, single point]",–,–
COc1ccc(C(C)=O)cc1CN1C(=O)NC2(CCCCC2)C1=O,"6.51 µM [rising, partial curve, poor fit]",–,"5.8 µM [rising, single point]"
CCOC(=O)C1CCN(C(=O)C(=O)c2cn(CC(=O)N3CCCCCC3)c3ccccc23)CC1,"29.1 µM [falling, single point]",-8.8%,–
CCOC(=O)c1ccc(S(=O)(=O)N2CCN(C(=O)c3nn(C)c(=O)c4ccccc34)CC2)cc1,–,71.7%,–
CCc1ccccc1OCC(=O)Nc1cccc(S(=O)(=O)NC2=NCCCCC2)c1,"29.1 µM [falling, single point]",-8.56%,–
CCc1cccc2c(C(=O)CSc3nncn3-c3ccc(OC)cc3)c[nH]c12,–,34.4%,"14.6 µM [rising, single point]"
CCc1nnc(NC(=O)[C@@H](NC(=O)c2ccc(C(C)(C)C)cc2)C(C)C)s1,"14.6 µM [falling, partial curve]",-27.8%,–
CCn1cc(C(=O)OCc2cccc(Br)c2)c(=O)c2ccc(C)nc21,"1.46 µM [rising, full curve]",106%,"1.16 µM [rising, full curve]"
O=C1CC2(CCN(C(=O)c3c(F)cccc3F)CC2)Oc2ccccc21,"6.51 µM [falling, full curve, poor fit]",-49.1%,"5.8 µM [falling, full curve, poor fit]"
O=C(Nc1nnc(C(F)(F)F)s1)c1ccc(Br)s1,"16.4 µM [falling, partial curve, poor fit]",-41.5%,–
COc1ccc(OC)c(-c2cc(C(=O)Nc3c(C)nn(Cc4ccccc4Cl)c3C)no2)c1,"2.31 µM [rising, single point]",-0.348%,–
